{"source": "paper PMC12250332", "molecular_target": "SlGeBP5 (tomato (Solanum lycopersicum L.))", "test": "two-hybrid; SlGeBP1 in pGADT7 as prey, SlGeBP5 in pGBKT7 as bait; Y2H Gold yeast; growth on SD/-Leu -Trp -His -Ade with 500 ng/mL AbA", "note": "Results are given in words; binding and its absence hold for the method and conditions named. A result given as binding can be weak or reduced; the word gives no strength.", "data": [{"substance": "SlGeBP1 (from UniProt A0A3Q7EMN3)", "values": [{"measurement": "binding", "value": "binds"}]}]}
